# Screen size: about 52,000 sequences; about 210 (0.4%) were called active.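 How the source made its calls: active means gene whose silencing raises cell survival under the drug, median off-target-corrected z-score across its silencing RNAs 2 or more; inactive means the rest.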 The list shows a part of the results.
# Assay: Resistance to Poly (ADP-Ribose) Polymerase inhibitor: Gene Identification via Genome-wide siRNA Screen
# Settings: mouse BRCA2 R2336H ES cells, olaparib, CellTiter-Glo viability; stronger effect = higher value
# Method in brief: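 Genome-wide siRNA screen (3 siRNAs/gene, 20 nM) in mouse ES cells carrying hypomorphic BRCA2 R2336H; olaparib 500 nM added 48 h post-transfection, CellTiter-Glo viability 72 h later. Normalized to plate-median negative control; MAD z-scores, gene median, seed-adjusted.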
row,Sequence,z-score
1,CCAGUACAAAGCCACAAUATT against Rab7,inactive: 0.465
2,GCCCAUUAUGAAACUGAAGTT against Nfatc3,inactive: -0.0888
3,CCAAGCAAGUGGUUAACUUTT against Psat1,inactive: -0.4
4,CGAAUUCAAUGUGCAUUAGTT against E130009J12Rik,inactive: -1.85
5,GGGCAGUGUACUGUUUAACTT against Rhpn1,inactive: -0.781
6,GGGAGCAAAAGCUUUACUUTT against Prlpi,inactive: 0.313
7,GGUUCCUUCUUCAUCUUCCTT against 2310002J15Rik,inactive: -0.293
8,GGAGGAAUUCCAAUGUUACTT against Mfi2,inactive: -0.834
9,GCCUAGAGACAUUUCUACCTT against Bcl2l10,inactive: -0.603
10,GCAGGAACAGCCUAAGAGATT against 2810481F14Rik,inactive: -0.0742
11,GGAUGAAGAAACAAGAAAGTT against Tmc1,inactive: 2.31
12,GGCUUUGGAUUUGUCAAGUTT against Dazap1,inactive: -0.253
13,GGAUGUGAAAUUCAAGCUUTT against Dhx34,inactive: 0.0639
14,GGCAAUGUUACCAUUCACUTT against Il6ra,inactive: -1.5
15,GUUUUAGUGUGGCUGCAUUTT against Gsta2,inactive: -0.201
16,GGAAGGUGAUAUCUUAUGUTT against Elmo3,inactive: -0.671
17,GGAAGUUGCGCCUAUGGAATT against Dhrs8,inactive: 0.285
18,CCUCGUGGUGAAAAUCAACTT against Lpin3,inactive: -0.69
19,GGACUUUCUGAUAAAGAACTT against Mmaa,inactive: 1.66
20,CCUCAGUUUGAACUUGAGATT against AI429613,inactive: 2.98
21,GGAUUAUGGUCUCAUUGUCTT against 4930539P14Rik,inactive: 0.794
22,GGAUGUGAACAUCGAGGACTT against Il1f10,inactive: 0.139
23,GGUACACCUUCCUUCCCUUTT against Gcs1,inactive: 1.24

# Individual results from above:
# In z-score, GGAAGUUGCGCCUAUGGAATT against Dhrs8 is entered as inactive: 0.285
# In z-score, GGGCAGUGUACUGUUUAACTT against Rhpn1 is entered as inactive: -0.781
# In z-score, GGUACACCUUCCUUCCCUUTT against Gcs1 is entered as inactive: 1.24
# In z-score, CCUCGUGGUGAAAAUCAACTT against Lpin3 is entered as inactive: -0.69
# In z-score, GGAUUAUGGUCUCAUUGUCTT against 4930539P14Rik is entered as inactive: 0.794

# (continued)

row,Sequence,z-score
1,CCCACUACUGUAAGACAUGTT against Trim46,inactive: 0.267
2,GGCCCAUCCUGAAACCAAATT against 9230106L14Rik,inactive: 0.296
3,GGCAGUGGUUAAAGGUUCCTT against Lrp6,inactive: 0.365
4,GCAGUAUAUCCUACAUUGGTT against Olfr510,active: 1.69
5,CCUACGAAGAAGAAGAGAUTT against Zfp67,inactive: -0.193
6,GGGCCAGCAUGUUAUCUGUTT against Myst1,inactive: -2.13
7,GCUUCUUUUUGCUGAUGACTT against V1ra6,inactive: 0.756
8,CCUGAGGUGCAGGACUAAUTT against AI875199,inactive: 1.65
9,GCAAAAGUUAACGAUUUCCTT against Wdr41,inactive: 0.44
10,GGCAACAUUGCUGUCGUUCTT against 5730537D05Rik,inactive: -1.01
11,GGAUUCCUCUAACACAUUUTT against Keg1,inactive: -2.47
12,GGAAAUGACUCUCUAUGGCTT against Cyp4f13,inactive: -0.0583
13,CCUUUUCAAGCUAACAACATT against Gba2,inactive: 0.878
14,CCAAUAAAAUUGGUGUUCCTT against H13,inactive: -0.423
15,CCUUAGCCACUUUUUGGCCTT against Dhrsx,inactive: 0.142
16,GCGAAUUCGUGAGAAGAGCTT against Ripk4,inactive: -0.624
17,GCAUAUUGGCUCAUCCUUUTT against Anapc2,inactive: 1.07
18,GGUUACGUUGUACGAAAUCTT against Nt5c1b,inactive: 0.813
19,GGUGACCCACUACUGUAAGTT against Trim46,inactive: -0.262
20,GUGCUACAUUCUGUCGGGATT against 1110025I09Rik,inactive: -0.105
21,GGUAGCAUAGGCUAGCAUATT against Crcp,inactive: 1.02
22,GGAAUGAAUAAAGCUACUUTT against Fah,inactive: -0.522
23,GCUUAUUGAAUCCCUCUUATT against S100a17,inactive: 0.177

row,Sequence,z-score
1,GGAAACAGAGAAGAUCAUUTT against Kif1a,inactive: -1.11
2,GGUACGAUCACUCCAAAACTT against Clk1,inactive: -2.56
3,GGAAGUAAGGAAAUCAAAATT against Gspt2,inactive: 0.806
4,GGAUUUUGGAUGAAAACACTT against BC022145,inactive: -1.58
5,GGUUGAUAAAGGAGCCAUCTT against Mcts1,inactive: -1.19
6,GGAUAUGAACAAUAGCAUATT against Kcna1,inactive: -0.413
7,GGCUCCUGUGCAUAUCUAATT against Olfr116,inactive: 0.0543
8,GCAGUUAUUCAAAUUUGCCTT against Keg1,inactive: 0.116
9,GGUGUUCUUCACUGACUACTT against Lrp1,inactive: 0.11
10,CCGACAGCACUUGUCUUGATT against Fbxo4,inactive: -1.89
11,GGGCUUAAGCUUUGAGGGUTT against Fkhl18,inactive: -0.203
12,GGAACUGUAGAUUGUGUACTT against Pdcd4,inactive: 0.166
13,GCCAUGUUAAAUUCUCUACTT against Poln,inactive: 0.741
14,GGACUUCUAGAGAAGAAGCTT against AI838661,inactive: -0.124
15,GGUUGCUACAAGAUUACUATT against Rps27l,inactive: -1.88
16,GGCAUGAAGUGAUCAAUAUTT against 1700020F09Rik,inactive: -1.36
17,GGAAGCUCUACCAGGUUAATT against Capg,inactive: -1.62
18,GGCAUGACAUCAUUGCAUGTT against Mapre2,inactive: -0.74
19,GGGAGCCACUCUGAAGAUCTT against Pkm2,inactive: 0.368
20,CCUCUACAAUGUAACCAACTT against Kirl2,inactive: 0.935
21,GGAGCAUGUAGAGGUUUACTT against Txnrd2,inactive: -0.978
